Values from PubChem BioAssay AID1259288 (Sanger Institute, 2017).

- Purpose: 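Verify that silencing candidate genes makes colorectal cancer cells more drug sensitive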 (follow-up of hits with single siRNAs)
- Cells: HT29 human colorectal cancer cells
- Reagents: single siRNA against human genes
- Conditions: anchor drugs BYL719 (1 µM), cetuximab (5 µg/ml) or trametinib (10 nM), or DMSO vehicle; each drug dosed to cause only modest loss of viability on its own
- Measured: 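Mean viability across replicates relative to non-targeting pool 2, and a synergy score setting the joint siRNA-plus-drug effect against each agent's effect alone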
- Scale: synergy score with BYL719 and synergy score with trametinib and synergy score with cetuximab: higher = stronger combined killing than expected from each alone; viability with siRNA alone (DMSO): higher = more viable cells
- Hit rule: 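Hit when synergy for any of BYL719, cetuximab and trametinib exceeds 0.10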
The whole screen tested 160 reagents; this is an unselected part. 7 of all reagents (4.4%) count as active. 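Active calls arise only from BYL719 or trametinib; no cetuximab synergy went beyond 0.10; drug doses chosen to have mild effect alone.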 Reagents against one gene are numbered here. No viability above 1 is reported: the scale is capped. Not stated in the record: the amount of reagent, the time to read-out.

gene	siRNA no.	synergy score with BYL719	synergy score with trametinib	synergy score with cetuximab	viability with siRNA alone (DMSO) (fraction of control)	Outcome
CAMK2N1 (calcium/calmodulin dependent protein kinase II inhibitor 1)	1	0.0696	-0.00326	0.0361	0.969	inactive
CAMK2N1 (calcium/calmodulin dependent protein kinase II inhibitor 1)	2	-0.039	-0.0469	-0.134	0.813	inactive
CAMK2N1 (calcium/calmodulin dependent protein kinase II inhibitor 1)	3	0.25	0.0399	-0.082	0.873	active
CAMK2N1 (calcium/calmodulin dependent protein kinase II inhibitor 1)	4	0.0313	-0.141	-0.0688	0.561	inactive
PIK3CA	1	-0.0395	-0.0373	0.026	0.631	inactive
PIK3CA	2	-0.291	-0.0652	-0.14	0.662	inactive
PIK3CA	3	-0.169	0.0718	-0.0874	0.804	inactive
PIK3CA	4	-0.139	0.0562	0.0665	0.875	inactive
STK36 (serine/threonine kinase 36)	1	-0.215	-0.036	-0.223	0.691	inactive
STK36 (serine/threonine kinase 36)	2	-0.134	-0.0398	-0.096	0.781	inactive
STK36 (serine/threonine kinase 36)	3	-0.158	0.0276	-0.179	0.507	inactive
STK36 (serine/threonine kinase 36)	4	-0.185	-0.0654	-0.18	0.665	inactive
NLK (nemo like kinase)	1	-0.207	-0.105	-0.209	0.756	inactive
NLK (nemo like kinase)	2	-0.0123	0.0604	-0.117	0.883	inactive
NLK (nemo like kinase)	3	-0.187	-0.0109	-0.0949	0.905	inactive
NLK (nemo like kinase)	4	-0.231	-0.0429	-0.0662	0.934	inactive
KCNH8 (potassium voltage-gated channel subfamily H member 8)	1	-0.104	-0.0202	-0.217	0.672	inactive
KCNH8 (potassium voltage-gated channel subfamily H member 8)	2	-0.122	0.0811	-0.099	0.733	inactive
KCNH8 (potassium voltage-gated channel subfamily H member 8)	3	-0.239	-0.05	-0.105	0.884	inactive
KCNH8 (potassium voltage-gated channel subfamily H member 8)	4	-0.0694	-0.0284	-0.127	0.749	inactive
SYNCRIP (synaptotagmin binding cytoplasmic RNA interacting protein)	1	-0.112	-0.0161	-0.192	0.808	inactive
SYNCRIP (synaptotagmin binding cytoplasmic RNA interacting protein)	2	-0.153	-0.0207	-0.0327	0.928	inactive
SYNCRIP (synaptotagmin binding cytoplasmic RNA interacting protein)	3	-0.108	0.0138	-0.248	0.524	inactive
SYNCRIP (synaptotagmin binding cytoplasmic RNA interacting protein)	4	-0.156	-0.0889	-0.0935	0.809	inactive
HUNK (hormonally up-regulated Neu-associated kinase)	1	0.0562	0.0395	0.0326	0.84	inactive
HUNK (hormonally up-regulated Neu-associated kinase)	2	-0.0671	-0.0517	-0.179	0.677	inactive
HUNK (hormonally up-regulated Neu-associated kinase)	3	-0.0499	0.047	-0.152	0.848	inactive
HUNK (hormonally up-regulated Neu-associated kinase)	4	0.0278	0.029	-0.117	0.849	inactive
IRAK3 (interleukin 1 receptor associated kinase 3)	1	-0.146	0.00106	-0.132	0.778	inactive
IRAK3 (interleukin 1 receptor associated kinase 3)	2	-0.0877	-0.0187	-0.0511	0.915	inactive
IRAK3 (interleukin 1 receptor associated kinase 3)	3	-0.0597	0.0101	-0.0985	0.889	inactive
IRAK3 (interleukin 1 receptor associated kinase 3)	4	-0.179	-0.0957	-0.103	0.897	inactive
CHD4 (chromodomain helicase DNA binding protein 4)	1	-0.0702	0.0141	-0.121	0.42	inactive
CHD4 (chromodomain helicase DNA binding protein 4)	2	-0.0285	0.0101	-0.00558	0.464	inactive
CHD4 (chromodomain helicase DNA binding protein 4)	3	-0.0424	-0.0316	-0.018	0.599	inactive
CHD4 (chromodomain helicase DNA binding protein 4)	4	-0.0848	-0.0604	-0.212	0.687	inactive

Active calls (from the list above):
gene	siRNA no.	synergy score with BYL719	synergy score with trametinib	synergy score with cetuximab	viability with siRNA alone (DMSO) (fraction of control)	Outcome
CAMK2N1 (calcium/calmodulin dependent protein kinase II inhibitor 1)	3	0.25	0.0399	-0.082	0.873	active
